{
  "sequences": {"note": "Amino acid sequences for entries named in this document (tags omitted). A change or cut given only in a name is not applied to a line headed by its entry.", "UniProt P78381": "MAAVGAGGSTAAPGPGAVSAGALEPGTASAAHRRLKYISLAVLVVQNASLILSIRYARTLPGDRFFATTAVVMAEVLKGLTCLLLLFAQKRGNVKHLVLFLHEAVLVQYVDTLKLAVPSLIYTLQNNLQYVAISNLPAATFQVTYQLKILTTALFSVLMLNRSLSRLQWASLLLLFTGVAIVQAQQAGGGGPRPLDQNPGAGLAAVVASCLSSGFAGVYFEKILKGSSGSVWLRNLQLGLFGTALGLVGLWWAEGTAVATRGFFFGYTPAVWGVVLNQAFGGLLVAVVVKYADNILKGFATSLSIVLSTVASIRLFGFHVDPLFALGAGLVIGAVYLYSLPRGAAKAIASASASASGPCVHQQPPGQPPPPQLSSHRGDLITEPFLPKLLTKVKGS", "UniProt P78344": "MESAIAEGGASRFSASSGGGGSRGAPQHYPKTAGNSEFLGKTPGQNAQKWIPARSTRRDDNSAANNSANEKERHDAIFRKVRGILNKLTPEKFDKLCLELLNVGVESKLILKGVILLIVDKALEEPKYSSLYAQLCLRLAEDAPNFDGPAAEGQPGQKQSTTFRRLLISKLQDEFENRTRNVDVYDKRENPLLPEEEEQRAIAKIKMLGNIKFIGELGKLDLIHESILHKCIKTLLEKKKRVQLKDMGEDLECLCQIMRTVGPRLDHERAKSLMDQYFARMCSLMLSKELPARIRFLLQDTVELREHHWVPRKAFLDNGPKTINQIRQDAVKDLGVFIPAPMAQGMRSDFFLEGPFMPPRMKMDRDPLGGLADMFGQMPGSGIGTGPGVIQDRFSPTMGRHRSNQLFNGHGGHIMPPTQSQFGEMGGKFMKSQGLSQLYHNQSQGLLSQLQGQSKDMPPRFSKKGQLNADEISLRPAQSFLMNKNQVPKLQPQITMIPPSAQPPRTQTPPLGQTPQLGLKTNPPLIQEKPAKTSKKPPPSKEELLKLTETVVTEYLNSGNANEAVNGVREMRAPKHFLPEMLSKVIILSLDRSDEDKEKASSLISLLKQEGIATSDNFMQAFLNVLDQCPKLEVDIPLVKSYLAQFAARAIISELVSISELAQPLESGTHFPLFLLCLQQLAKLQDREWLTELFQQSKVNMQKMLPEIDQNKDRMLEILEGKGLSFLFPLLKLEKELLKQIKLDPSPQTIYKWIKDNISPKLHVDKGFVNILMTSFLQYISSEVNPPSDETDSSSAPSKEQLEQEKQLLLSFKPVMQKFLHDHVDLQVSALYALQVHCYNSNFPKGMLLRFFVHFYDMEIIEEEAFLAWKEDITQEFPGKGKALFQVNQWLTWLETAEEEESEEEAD", "UniProt P55795": "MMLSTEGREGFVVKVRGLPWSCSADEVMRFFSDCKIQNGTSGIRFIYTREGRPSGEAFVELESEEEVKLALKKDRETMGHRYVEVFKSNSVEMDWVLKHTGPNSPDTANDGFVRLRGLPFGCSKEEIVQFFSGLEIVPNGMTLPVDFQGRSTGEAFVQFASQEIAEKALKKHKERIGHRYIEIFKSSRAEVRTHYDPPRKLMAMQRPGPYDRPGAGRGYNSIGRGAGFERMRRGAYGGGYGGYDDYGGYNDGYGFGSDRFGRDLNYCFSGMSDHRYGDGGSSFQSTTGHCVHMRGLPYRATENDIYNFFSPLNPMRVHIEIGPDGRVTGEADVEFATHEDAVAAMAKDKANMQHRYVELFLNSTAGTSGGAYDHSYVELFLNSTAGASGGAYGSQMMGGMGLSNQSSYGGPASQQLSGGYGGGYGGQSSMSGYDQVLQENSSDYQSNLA", "UniProt P58335, whole entry": "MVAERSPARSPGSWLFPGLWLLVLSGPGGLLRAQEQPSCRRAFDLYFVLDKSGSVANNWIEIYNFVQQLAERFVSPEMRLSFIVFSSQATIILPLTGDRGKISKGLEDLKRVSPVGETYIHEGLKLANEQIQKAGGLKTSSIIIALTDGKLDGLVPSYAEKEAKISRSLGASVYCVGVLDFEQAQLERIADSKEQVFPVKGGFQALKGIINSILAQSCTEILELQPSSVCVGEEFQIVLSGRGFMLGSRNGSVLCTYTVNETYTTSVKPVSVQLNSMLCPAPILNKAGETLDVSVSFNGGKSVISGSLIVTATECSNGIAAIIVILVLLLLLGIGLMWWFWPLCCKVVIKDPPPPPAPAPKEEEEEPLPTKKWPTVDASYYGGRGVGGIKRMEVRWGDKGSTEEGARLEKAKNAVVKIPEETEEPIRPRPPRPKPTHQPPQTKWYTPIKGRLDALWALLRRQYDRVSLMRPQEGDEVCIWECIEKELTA"},
  "source": "the supplement of paper PMC12819154",
  "about": "“High-throughput peptide-centric local stability assay extends protein–ligand identification to membrane proteins, tissues and bacteria” (Nature Structural & Molecular Biology, 2025)",
  "note": "The list shows a part of the results. Most entries show no effect beyond the scatter of the controls.",
  "data": [
    {"compound": "CN[C@@H]1C[C@H]2O[C@@](C)([C@@H]1OC)n1c3ccccc3c3c4c(c5c6ccccc6n2c5c31)C(=O)NC4 [staurosporine]", "test": "log2 fold change of tryptic peptide abundance, ligand vs vehicle (limited proteolysis) (log2 ratio); higher = more trypsin-susceptible (destabilized)", "settings": "ligand concentration: 20 uM; sample: K562 cleared lysate; digestion: 4 min, 22 C (HT-PELSA RT4min, Orbitrap Astral)", "values": [
      {"target": "UniProt P62750 (peptide sequence: LDHYAIIKFPLTTESAMKK, peptide start residue: 71)", "log2 fold change": 0.186},
      {"target": "UniProt P62701 (peptide sequence: ITPEEAKYK, peptide start residue: 114)", "log2 fold change": 0.241},
      {"target": "SLC35A2 (peptide sequence: GDLITEPFLPK, peptide start residue: 378) (UniProt P78381)", "log2 fold change": -0.0499},
      {"target": "UniProt P61513 (peptide sequence: IEISQHAK, peptide start residue: 29)", "log2 fold change": -0.148},
      {"target": "EIF4G2 (peptide sequence: TNPPLIQEK, peptide start residue: 521) (UniProt P78344)", "log2 fold change": -0.477},
      {"target": "HNRNPH2 (peptide sequence: YGDGGSSFQSTTGHCVHMR, peptide start residue: 276) (UniProt P55795)", "log2 fold change": -0.241},
      {"target": "ANTXR2 (peptide sequence: LDALWALLR, peptide start residue: 452) (UniProt P58335)", "log2 fold change": -0.0405}
    ]}
  ]
}
